Measurements reported in PubChem BioAssay AID686937 (Drosophila RNAi Screening Center, 2013)
The deposit covers about 23,000 reagents; shown is an unselected part of those with a known target gene and a result. 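Reduced-secretion tags in replicate 1 do not always agree with the z-scores; no criterion for assigning the tags was given.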 A plus sign joins genes that one reagent is predicted to hit. Further read-outs or replicates are left out here. Not given: the amount of reagent.

Screen: 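Genes in the fly needed for secretion of protein constitutively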 (primary screen)
System: Drosophila S2 cells expressing secreted horseradish peroxidase
Knock-down reagent: long dsRNA against Drosophila genes
Timing: about 5.5 days (5 days dsRNA, then 12 h reporter induction)
Treatment: reporter expression induced after 5 days of dsRNA, read 12 h later; inducer not stated
Measured: 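Chemiluminescent measurement of peroxidase in the medium 12 h after reporter induction, following 5 days of dsRNA, given as a z-score per plate; higher means more secretion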
Scale: z-score: higher = more reporter secreted into medium

velo (GeneID 38748) [DRSC08841]
- z-score, replicate 1: -4.31

velo (GeneID 38748) [DRSC09698]
- z-score, replicate 1: -0.55

CG13186 (GeneID 36294) [DRSC06311]
- z-score, replicate 1: 0.54

CG34203 (GeneID 5740243) [DRSC03855]
- z-score, replicate 1: 0.08

insb (GeneID 36967) [DRSC06995]
- z-score, replicate 1: 0.38

Smyd4-3 (GeneID 36234) [DRSC07041]
- z-score, replicate 1: 0.32

scro (GeneID 3355151) [DRSC17099]
- z-score, replicate 1: 0.1

scro (GeneID 3355151) [DRSC17102]
- z-score, replicate 1: 0.34

CG15128 (GeneID 37263) [DRSC06550]
- z-score, replicate 1: 0.16

Su(P) (GeneID 39856) [DRSC11291]
- z-score, replicate 1: 0.38

ash1 (GeneID 40133) [DRSC11325]
- z-score, replicate 1: 0.49

mTerf5 (GeneID 42182) [DRSC16209]
- z-score, replicate 1: 0.28

Mco4 (GeneID 326221) [DRSC20061]
- z-score, replicate 1: 0.05

DIP-iota (GeneID 33925) [DRSC02140]
- z-score, replicate 1: 0.31

CG17568 (GeneID 35198) [DRSC02628]
- z-score, replicate 1: 0.29

CG31556 (retired record) (GeneID 318800) [DRSC12122]
- z-score, replicate 1: 0.1

CG31556 (retired record) (GeneID 318800) [DRSC22177]
- z-score, replicate 1: 0.28

Csk (GeneID 41398) [DRSC12861]
- z-score, replicate 1: 0.31

Csk (GeneID 41398) [DRSC15223]
- z-score, replicate 1: 0.28

superdeath (GeneID 43444) [DRSC14868]
- z-score, replicate 1: -1.96

Tssk (GeneID 42233) [DRSC14784]
- z-score, replicate 1: 0.21

ida (GeneID 45574) [DRSC08163]
- z-score, replicate 1: -0.78

Cyp313a3 (GeneID 41488) [DRSC16626]
- z-score, replicate 1: 0.3

Hus1-like (GeneID 40598) [DRSC12353]
- z-score, replicate 1: 0.22

CG31156 (GeneID 42669) [DRSC15753]
- z-score, replicate 1: 0.4

CG31156 (GeneID 42669) [DRSC15755]
- z-score, replicate 1: 0.38

sowah (GeneID 39438) [DRSC09186]
- z-score, replicate 1: -0.07

sowah (GeneID 39438) [DRSC09758]
- z-score, replicate 1: 0.29

CG14647 (GeneID 40558) [DRSC12233]
- z-score, replicate 1: 0.26

CG14647 (GeneID 40558) [DRSC22497]
- z-score, replicate 1: 0.44

Usp20-33 (GeneID 36580) [DRSC07196]
- z-score, replicate 1: 0.34

mib1 (GeneID 39750) [DRSC10550]
- z-score, replicate 1: 0.58

CG6938 (GeneID 39362) [DRSC10752]
- z-score, replicate 1: 0.57

His4:CG33883 + His4:CG33889 + His4:CG33899 + 20 more [DRSC21268]
- z-score, replicate 1: -1.6

CG31600 (GeneID 318834) [DRSC22541]
- z-score, replicate 1: -0.17

CG15139 (retired record) (GeneID 12798250) [DRSC02439]
- z-score, replicate 1: -0.09

cwo (GeneID 44669) [DRSC17072]
- z-score, replicate 1: -1.75

CG7423 (GeneID 32894) [DRSC20044]
- z-score, replicate 1: 0.64

CG11594 (GeneID 38473) [DRSC08207]
- z-score, replicate 1: 0.2

cac (GeneID 32158) [DRSC19743]
- z-score, replicate 1: 0.26

cac (GeneID 32158) [DRSC20354]
- z-score, replicate 1: -0.01

CG43111 (GeneID 12798347) [DRSC05796]
- z-score, replicate 1: 0.1

chk (GeneID 35578) [DRSC04994]
- z-score, replicate 1: 0.48

S (GeneID 33281) [DRSC00785]
- z-score, replicate 1: -0.18

CG1628 (GeneID 31990) [DRSC18109]
- z-score, replicate 1: 0.21

CG6283 (GeneID 43250) [DRSC16009]
- z-score, replicate 1: 0.36

Ggt-1 (GeneID 32839) [DRSC19993]
- z-score, replicate 1: 0.33

Setx (GeneID 38904) [DRSC10859]
- z-score, replicate 1: 0.44

CG2528 (GeneID 35435) [DRSC03724]
- z-score, replicate 1: -0.09

CG11597 (GeneID 39337) [DRSC09847]
- z-score, replicate 1: 0.7

Sgs7 (GeneID 47198) [DRSC11281]
- z-score, replicate 1: 0.14
